Assay [1] concerns the target WT-PLB labelled with mCer (donor) or YFP (acceptor) (human) (UniProt P26678). Description: FRET or BRET.
The target in assay [2] is R9C-PLB labelled with mCer (donor) or YFP (acceptor) (human) (UniProt P26678). Description: FRET or BRET.
The target in assay [3] is R14del-PLB labelled with mCer (donor) or YFP (acceptor) (human) (UniProt P26678). Put plainly: FRET or BRET.
Assay [4] addresses SERCA2a labelled with Cer (donor) (UniProt P16615). Put plainly: FRET or BRET.
Assay [5] addresses WT-PLB (phospholamban, wild type), as expressed for immunoblots (human) (UniProt P26678). Description: SDS-PAGE and immunoblot of oligomers.
Assay [6] concerns the target R14del-PLB (phospholamban with in-frame deletion of arginine 14), as expressed for immunoblots (human) (UniProt P26678). Put plainly: SDS-PAGE and immunoblot of oligomers.

Chains of the proteins cited; added tags and fusions are not shown. Lines headed by an entry give the natural chain unless they say otherwise; changes in a name come on top. A line that says so, or that is headed by a name, gives the form on record, which may keep a tag or linker.
SERCA2a labelled with Cer (donor) (P16615, form named): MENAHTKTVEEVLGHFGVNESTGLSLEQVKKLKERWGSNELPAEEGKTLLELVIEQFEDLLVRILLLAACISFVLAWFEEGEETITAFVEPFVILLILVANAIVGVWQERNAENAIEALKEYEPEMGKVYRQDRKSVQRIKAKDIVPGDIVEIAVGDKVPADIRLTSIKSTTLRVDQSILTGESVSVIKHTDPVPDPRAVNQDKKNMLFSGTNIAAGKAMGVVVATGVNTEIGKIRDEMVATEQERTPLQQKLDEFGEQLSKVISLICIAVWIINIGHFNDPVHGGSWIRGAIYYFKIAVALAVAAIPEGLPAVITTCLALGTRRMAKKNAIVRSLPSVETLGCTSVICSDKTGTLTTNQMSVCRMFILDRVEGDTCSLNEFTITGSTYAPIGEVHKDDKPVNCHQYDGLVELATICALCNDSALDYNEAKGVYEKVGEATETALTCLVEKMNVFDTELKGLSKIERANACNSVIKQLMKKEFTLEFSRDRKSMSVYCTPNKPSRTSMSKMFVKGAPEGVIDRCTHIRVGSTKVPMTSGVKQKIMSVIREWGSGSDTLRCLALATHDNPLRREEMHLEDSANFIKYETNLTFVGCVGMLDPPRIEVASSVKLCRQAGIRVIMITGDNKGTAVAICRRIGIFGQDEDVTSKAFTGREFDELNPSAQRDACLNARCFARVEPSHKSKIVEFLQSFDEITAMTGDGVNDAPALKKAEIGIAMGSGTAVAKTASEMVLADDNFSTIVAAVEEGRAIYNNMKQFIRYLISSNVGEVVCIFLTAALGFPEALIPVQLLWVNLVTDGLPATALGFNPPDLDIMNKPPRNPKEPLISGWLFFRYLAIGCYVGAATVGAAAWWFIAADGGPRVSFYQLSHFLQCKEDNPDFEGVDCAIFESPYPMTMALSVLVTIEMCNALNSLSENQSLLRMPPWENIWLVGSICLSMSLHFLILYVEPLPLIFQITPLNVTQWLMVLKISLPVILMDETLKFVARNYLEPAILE

We go through five molecules from doi:10.1101/2023.05.26.542463 (bioRxiv, 2023).

No constants are given. Whether binding was seen depends on the method and setting. For some of these results: Binding seen in cells or lysates may run through a third protein. Some binding calls cover weakened binding; strength is not graded here.

As to “R9C-PLB labelled with mCer (donor) or YFP (acceptor) (from UniProt P26678 1-52)”, the binding entry in assay [1] and in assay [2] was “binds” throughout.

As for “R14del-PLB labelled with mCer (donor) or YFP (acceptor) (from UniProt P26678 1-52)”, the binding entry in assay [3], in assay [1] and in assay [4] was “binds” each time.

Consider “WT-PLB labelled with mCer (donor) or YFP (acceptor) (from UniProt P26678 1-52)”, for which the binding result in assay [1] and in assay [4] was “binds” in each case.

B1: WT-PLB (phospholamban, wild type), as expressed for immunoblots (natural protein)
chain: MEKVQYLTRSAIRRASTIEMPQQARQKLQNLFINFCLILICLLLICIIVMLL
As for B1, in assay [5], the binding result is “binds”.

B2: R14del-PLB (phospholamban with in-frame deletion of arginine 14), as expressed for immunoblots (natural protein)
chain: MEKVQYLTRSAIRASTIEMPQQARQKLQNLFINFCLILICLLLICIIVMLL
For B2, the binding result in assay [6] and in assay [5] was “binds” each time.
